Library screen at single concentrations

The values are deposited in ChEMBL (CHEMBL3988442, “University of Dundee, Small-Polar-MMV Screening Library” (2021)).

A: 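Growth of Mycobacterium tuberculosis over 4 days (cholesterol / DPPC medium with tyloxapol); the read-out is not stated. Compounds at 50 µM. The record gives no direction; compounds that gave an IC50 in retests scored well above the rest, so higher reads as more growth inhibition. Of about 69,000 compounds tested this way, about 370 (0.54%) reached 50% or more in at least one test.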
B: 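Whole-cell growth test on Mycobacterium tuberculosis, read after 3 days in glucose-containing 7H9 medium; the read-out is not stated. Concentration: 50 µM. The record gives no direction; compounds that gave an IC50 in retests scored well above the rest, so higher reads as more growth inhibition. About 69,000 compounds were tested under these conditions; 1.1% (about 760) showed 50% or more at least once.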

Values are the deposited “Percent Effect”, in %.
The record does not define 0% and 100%; most values in the screen are far below 50% and negative numbers occur (in some assays of this library far below -100).
The compounds are a random part of those screened.
Two or more numbers in one place are separate tests of the same structure; such repeats can differ widely.

Compound	A	B
CCCNC(=O)c1nn(CC)cc1NC(=O)c1c(C)nn(C)c1C	15.36%	7.466% & 11.05%
CS(=O)(=O)N1CC2(CCCN2Cc2ccc(Cl)cc2)Cc2ccccc21 (stereo unspecified)	-3.141%	-1.698%
CSCCC(NC(=O)c1ccco1)C(=O)N(C)Cc1ccsc1 (stereo unspecified)	-3.909%	-11.35%
O=c1[nH]cnc2[nH]c(N3CCOCC3)nc12	-18.57%	-0.9384% & -0.5136%
Cn1cnnc1C1CCCN(C(=O)c2cc(C3CC3)on2)C1 (stereo unspecified)	0.9359%	-5.682%
CCN1CCN(C(=O)c2ccc(=O)n(C)c2)c2ccccc21	-3.928%	-34.62% & -4.3%
Cc1ccc(-c2cc(C(=O)NCCC3=CCCCC3)[nH]n2)o1	-11.63%	-23.88%
COc1cc(C(=O)NC(CC(=O)O)c2cccs2)cc(OC)c1C (stereo unspecified)	-25.19%	-22.19%
Cc1ccccc1N1CCN(C(=O)c2cccnc2-n2cncn2)CC1	-2.146%	24.16% & -6.403%
COc1ccc(OCc2cc(C(=O)N3CC=CC3)n[nH]2)c(Cl)c1	-18.95%	-11.14%
c1ccc2oc(CN3CCOC(Cn4cccn4)C3)nc2c1 (stereo unspecified)	10.64%	-3.465%
CCC(C)N1CCc2c(C(=O)N(C)Cc3ccccn3)nn(C)c2C1 (stereo unspecified)	0.3286%	-16.07% & -0.8675%
CC(c1nc(C2CC2)no1)N1CCN(CCCN2CCCC2=O)CC1 (stereo unspecified)	-13.38%	-4.222% & -40.8%
CCn1c(CN2CCOC(Cn3cccn3)C2)nc2c(F)cccc21 (stereo unspecified)	-22.04%	-30.39% & -4.781%
OC(CN(Cc1ccccc1)Cc1ccon1)c1ccco1 (stereo unspecified)	2.93%	9.802%
CC1COCCN1C(=O)c1cccc(OCc2cscn2)c1 (stereo unspecified)	14.53%	-8.22%
Cc1nc(C(=O)N(C)[C@@H]2CCC[C@@H](Oc3ccccc3)[C@@H]2O)co1	-24.54%	1.837%
CC(C)[C@H]1CN(CC2CCC2)C[C@@H]1NC(=O)c1ccc(=O)[nH]c1	-7.984%	2.357% & 6.784%
COCCN(C)C[C@H]1CC[C@@H](Cc2ccc3c(cnn3C)c2)O1	8.418%	26.63% & 7.593%
O=S(=O)(Cc1ccccc1)NCc1ccnc(O)c1	5.356%	-2.46%
O=c1[nH]c2nc(N3CCOCC3)ncc2c(=O)n1-c1cccc(F)c1	-9.081%	-15.02%
O=C(C[S+]([O-])Cc1cccc(Cl)c1)NC1CCCC1 (stereo unspecified)	-0.01221%	12.01%
COc1ccc(NC(=O)Cn2nc(C)c(C)cc2=O)cc1OC	-3.577%	4.521%
O=C(NCCCN1CCC(OC2CCCCC2)CC1)C1CCCC1	-10.84%	-1.963% & -29.14%
FC(F)(F)CN1CCC(CNc2nc3ccccc3o2)C1 (stereo unspecified)	15.62%	30.74%
CC1CCCN(CCNC(=O)c2scnc2Cl)C1 (stereo unspecified)	0.6023%	25.16%
O=C(NCCn1ccnc1)c1cncc(Br)c1	-32.31%	-0.5666%
[H][C@]12CC[C@]([H])(CN(c3nccnc3OC)C1)N(CC=C(C)C)C2=O	-17.46%	-2.996%
Cc1nc(CC2CCCN(Cc3nc(N)c4ccccc4n3)C2)no1 (stereo unspecified)	14.34%	4.069% & 0.4777%
O=c1nc(SCc2ccncc2)c2c(n1CCO)CCCC2	-4.431%	-19.2% & -5.473%
Cc1ccc(-n2ncc(C(=O)NC3CC(C)(C)NC(C)(C)C3)c2N)cc1	-23.54%	-14.21%
[H][C@]12CC[C@]([H])(CN(c3ncccc3C(N)=O)C1)N(Cc1ccccn1)C2=O	-24.46%	-3.799%
Cc1oncc1C(=O)NCc1cc(=O)n2c(n1)CN(CC(C)C)CCC2.O=C(O)C(F)(F)F	-9.856%	-19.83%
COc1ccc(C)cc1NC(=O)Nc1cnc(O)nc1O	2.158%	22.07%
CCCn1ccc2cc(NC(=O)NCCn3cnnc3CC)ccc21	19.33%	20.37%
O=c1[nH]c(CCN2CCN(CC(F)(F)F)CC2)nc2ccccc12	18.87%	16.22%
Cc1nc(CN2CCCC(NCCOc3ccccc3C#N)C2)no1 (stereo unspecified)	-9.73%	-15.39%
CC1(C(N)=O)CN(CC2CCOCC2)CCO1 (stereo unspecified)	-6.892% & -24.42%	-20.04%
O=C(O)C(F)(F)F.[H][C@@]12CN(Cc3ccoc3)C[C@]1([H])C(=O)N(c1cnn(C)c1)C2	-23.73%	-0.1486% & 2.367%
CCCc1nc(CN(CC)Cc2ccc(O)c(C(=O)O)c2)no1	-0.7802%	-9.391%
C=C(C)COc1cccc(CNCCc2nc(N)cc(O)n2)c1	-5.868%	-2.972% & 0.7492%
CN(C)CCN1CCN(CC2CC2)c2ncccc2C1	-2.962%	-13.15%
Cc1n[nH]c(C)c1C1CCCN1C(=O)NCC(=O)NC(C)(C)C (stereo unspecified)	-1.86%	-7.512% & -5.864%
CN1CCCC(c2cncc(C(=O)NCc3ccccc3Cl)n2)C1.O=CO (stereo unspecified)	-7.452%	-2.66%